No constants are given. Whether binding was seen depends on the method and setting. Binding seen in cells or lysates may run through a third protein. A result given as binding can be weak or reduced; the word gives no strength.
Target: T1, IGLR-2∷mCherry (C. elegans) (UniProt P34595)
T1 sequence: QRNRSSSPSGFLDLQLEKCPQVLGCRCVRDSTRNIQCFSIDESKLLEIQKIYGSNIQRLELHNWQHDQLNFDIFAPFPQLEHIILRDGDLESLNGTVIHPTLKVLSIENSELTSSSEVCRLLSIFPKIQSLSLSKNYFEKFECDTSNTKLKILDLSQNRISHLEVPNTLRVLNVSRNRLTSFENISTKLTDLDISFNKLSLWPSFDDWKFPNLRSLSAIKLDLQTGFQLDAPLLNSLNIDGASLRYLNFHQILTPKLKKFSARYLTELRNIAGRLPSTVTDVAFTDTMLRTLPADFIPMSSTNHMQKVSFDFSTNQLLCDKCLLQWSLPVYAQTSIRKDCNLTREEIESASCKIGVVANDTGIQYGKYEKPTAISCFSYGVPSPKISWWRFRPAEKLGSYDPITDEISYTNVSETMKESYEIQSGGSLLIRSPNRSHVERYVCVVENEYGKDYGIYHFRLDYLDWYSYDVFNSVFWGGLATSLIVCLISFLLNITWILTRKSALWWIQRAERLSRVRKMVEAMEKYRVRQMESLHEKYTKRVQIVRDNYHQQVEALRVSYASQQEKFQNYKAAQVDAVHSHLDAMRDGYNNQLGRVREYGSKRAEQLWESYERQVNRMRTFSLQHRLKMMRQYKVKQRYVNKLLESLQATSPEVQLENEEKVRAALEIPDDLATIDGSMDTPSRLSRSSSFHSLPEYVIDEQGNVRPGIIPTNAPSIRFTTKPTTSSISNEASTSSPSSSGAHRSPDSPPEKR
Experiment: FRET or BRET

The chains behind the UniProt entries cited, without tags or fusion partners. Where a name states a change or a piece, a line headed by the entry shows the natural chain unless it says otherwise.
UniProt Q9N536: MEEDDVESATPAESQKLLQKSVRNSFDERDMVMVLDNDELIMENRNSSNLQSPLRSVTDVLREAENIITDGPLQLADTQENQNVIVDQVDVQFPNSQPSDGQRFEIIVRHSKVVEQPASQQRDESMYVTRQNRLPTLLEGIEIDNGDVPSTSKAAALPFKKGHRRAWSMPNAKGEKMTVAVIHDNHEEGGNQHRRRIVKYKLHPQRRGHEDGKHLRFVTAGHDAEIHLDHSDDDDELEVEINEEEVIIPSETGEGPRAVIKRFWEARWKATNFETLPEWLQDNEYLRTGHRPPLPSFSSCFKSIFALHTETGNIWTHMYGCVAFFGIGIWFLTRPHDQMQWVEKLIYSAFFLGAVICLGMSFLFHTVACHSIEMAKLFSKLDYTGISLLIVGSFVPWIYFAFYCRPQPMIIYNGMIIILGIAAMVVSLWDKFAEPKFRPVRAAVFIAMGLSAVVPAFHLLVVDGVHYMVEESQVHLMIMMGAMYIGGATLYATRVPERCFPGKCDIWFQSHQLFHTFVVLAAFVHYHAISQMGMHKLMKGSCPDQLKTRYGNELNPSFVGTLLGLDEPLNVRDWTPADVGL

binding: binds
Substance: PAQR-2∷GFP (from UniProt Q9N536) (receptor)

— doi:10.1101/2020.06.11.144329
